# Assay results: patent publication US6384204
# For part of these data: No signal at the amounts used counts as a negative. Where a protein sequence is shown, tags need not be part of it.
# Tests used:
# [1] = molecular target: T1, Pet-1 (CGS-Pet-1) (Rattus norvegicus) (UniProt O70132); assay: activity in cells; conditions: protein in cells, only the site is given
# T1 sequence (limits assumed): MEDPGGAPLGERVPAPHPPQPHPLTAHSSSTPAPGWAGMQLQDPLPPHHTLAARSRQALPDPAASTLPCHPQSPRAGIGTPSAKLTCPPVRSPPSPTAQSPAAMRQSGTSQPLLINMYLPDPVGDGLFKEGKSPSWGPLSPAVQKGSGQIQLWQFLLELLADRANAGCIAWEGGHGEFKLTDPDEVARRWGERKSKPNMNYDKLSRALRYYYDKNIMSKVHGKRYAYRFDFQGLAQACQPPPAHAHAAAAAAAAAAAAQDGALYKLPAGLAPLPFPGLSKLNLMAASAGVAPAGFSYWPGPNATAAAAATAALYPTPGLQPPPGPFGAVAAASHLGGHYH
# [2] = molecular target: T2, Pet-1 DNA binding domain-VP16 fusion (Rattus norvegicus) (UniProt O70132); assay: activity in cells; conditions: four copies upstream of MLP; activation in retinal cultures; protein in cells; only the site is given
# T2 sequence: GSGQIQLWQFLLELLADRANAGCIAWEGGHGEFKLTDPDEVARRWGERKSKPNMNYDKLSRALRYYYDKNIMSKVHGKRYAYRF
sequence,measurement,setting,value
CAGGAAGTGACTCAGGAAGTGACTCAGGAAGTGACAC (double strand) [3XP],activity on this sequence,[1]; dose-dependent repression of luciferase reporter in C6 cells,active
CATCAAGTGACTCATCAAGTGACTCATCAAGTGACAC (double strand) [3XPm],activity on this sequence,"[1]; no repression in C6 cells, variant of 3XP",not active
GGGAGGAAATG (double strand) [m5HTT (-2024/-2014)],activity on this sequence,[2],active
